At least one structure is not confirmed: it was looked up by name or label, or the drawing left a doubt.
What was measured:
[1] = test system: intracellular cAMP in primary VSMC; assay: cAMP dynamics with FRET-based TEpacVV biosensor; assay type: cell-based, mouse; conditions: 2.5 μM forskolin, PI3Kγ-KD cells
Description: A. Left panel: Average changes in intracellular cAMP concentration ([cAMP]i) in primary VSMC from WT (top), PI3Kγ KO (middle) and PI3Kγ-KD (bottom) mice and expressing the ^TEpac^VV biosensor. The black line represents the average F480/F535 emission ratio over time in response to 2.5 μM forskolin (fsk) stimulation and fsk (2.5 μM)+IBMX (200 μM) treatment. B. Histograms representing the mean values for forskolin responses. Results are expressed as a percentage of the maximal ratio change (% of Rmax(IBMX response)) determined by the final application of forskolin (2.5 μM)+IBMX (200 μM). Data shown are the means±SEM. (n=5 mice). Data are presented as mean±SEM and were compared using a Kruskal-Wallis test. C. […]
A. Average changes in [cAMP]i in primary VSMC from WT (top), PI3Kγ KO (middle) and PI3Kγ-KD (bottom) mice and expressing the ^TEpac^VV biosensor. […] Results are expressed as a percentage of the maximal ratio change (% of Rmax (IBMX response)) determined by the final application of forskolin (2.5 μM)+IBMX (200 μM). […] Phosphodiesterase activity detected in PDE4D immunoprecipitates from primary VSMC. […]
Measurement of cAMP dynamics: Primary SMC were seeded on coverslips and infected with the ^TEpac^VV-encoding type-5 adenovirus (˜100 particles per SMC) as described elsewhere. […] Pairs of images were recorded with an Orca-ER CCD camera (Hamamatsu Photonics, Japan), at 20-s intervals. […]

primary VSMC = assay: Mouse SMC proliferation by BrdU incorporation; assay type: cell-based; conditions: 25 μM FSK
Description: A. Representatives cross sections of injured femoral arteries stained with Masson Trichrome from the indicated hematopoietic chimeras. Scale bars=100 μM. Irradiated WT, PI3Kγ KD (KD) and PI3Kγ KO recipient mice were transplanted with bone marrow from the indicated donors to obtain the indicated chimeras. Irradiated WT mice were transplanted with bone marrow from WT, PI3Kγ KD or PI3Kγ KO to obtain the following hematopoietic chimeras: WT>WT, KD>WT and KO>WT. Irradiated KD recipient mice were transplanted with bone marrow from WT or PI3Kγ KD donor mice (WT>KD; KD>KD). Irradiated KO recipient mice were transplanted with bone marrow from WT or KO donors (WT>KO and KO>KO). B. Quantitative analysis of intima/media ratios of indicated hematopoietic chimeras. Histogram represents the neointima/media ratio for each chimera (n>6 mice for each group). Data are presented as mean±SEM and were compared using a one-way ANOVA test. C. Schematic representation of the experimental model used to investigate PI3Kγ implication in the control of SMC proliferation. D. Western blot of PI3Kγ expression in each genotype. […] (5<n<12 cultures for each genotype). Data are presented as mean±SEM and were compared using a one-way ANOVA test.
A, B, C. […] BrdU was added during the last 18 h (n=8 cultures for each genotype). Data are presented as mean±SEM and were compared using a one-way ANOVA test. D. Schematic model of PI3Kγ implication in VSMC proliferation. VSMC proliferation is induced by PDGF stimulation. […] This PI3Kγ recruitment could also concentrate phosphodiesterases (PDE) that counterbalance cAMP production by adenylate cyclase (AC) induced by other signals. By these mechanisms, PI3Kγ acts as an amplifier of VSMC synthetic transition.
Measure of mouse SMC proliferation: Primary mouse SMCs were sub-cultured onto 48-well cell culture plates in complete medium. Cells were treated or not with PDGF (520-BB-050, R&D Systems) and forskolin (F3917, Sigma Aldrich) for 24 h. […] Proliferation rate is measured as the ratio of BrdU positive nuclei over total nuclei and expressed as fold increase.

C=C[C@@]1(C)CC(=O)[C@]2(O)[C@@]3(C)[C@@H](O)CCC(C)(C)[C@@H]3[C@H](O)[C@H](OC(C)=O)[C@@]2(C)O1 [forskolin]
forskolin cAMP response [1]: remains similar to WT | VSMC proliferation induced by PDGF (primary VSMC; PDGF 25 ng/ml, 24 h, primary VSMC): decreased VSMC proliferation | FSK effect on VSMC proliferation relative to WT (primary VSMC; PI3Kγ-KD VSMC): not in PI3Kγ-KD VSMC | FSK effect on VSMC proliferation relative to WT (primary VSMC; PI3Kγ-KO VSMC): significantly potentiated

Source: US20230234996A1, “PI3K GAMMA INHIBITOR PEPTIDE FOR TREATMENT OF FIBROPROLIFERATIVE VASCULAR DISEASES” (Kither Biotech S.r.l., priority 2020, published 2023)
